# Experimental data published in article PMC8080067, “Tight binding of cytochrome b5 to cytochrome P450 17A1 is a critical feature of stimulation of C21 steroid lyase activity and androgen synthesis” (The Journal of Biological Chemistry, 2021).
# The chains behind the UniProt entries cited, without tags or fusion partners. Where a name states a change or a piece, a line headed by the entry shows the natural chain unless it says otherwise.
# UniProt P00388: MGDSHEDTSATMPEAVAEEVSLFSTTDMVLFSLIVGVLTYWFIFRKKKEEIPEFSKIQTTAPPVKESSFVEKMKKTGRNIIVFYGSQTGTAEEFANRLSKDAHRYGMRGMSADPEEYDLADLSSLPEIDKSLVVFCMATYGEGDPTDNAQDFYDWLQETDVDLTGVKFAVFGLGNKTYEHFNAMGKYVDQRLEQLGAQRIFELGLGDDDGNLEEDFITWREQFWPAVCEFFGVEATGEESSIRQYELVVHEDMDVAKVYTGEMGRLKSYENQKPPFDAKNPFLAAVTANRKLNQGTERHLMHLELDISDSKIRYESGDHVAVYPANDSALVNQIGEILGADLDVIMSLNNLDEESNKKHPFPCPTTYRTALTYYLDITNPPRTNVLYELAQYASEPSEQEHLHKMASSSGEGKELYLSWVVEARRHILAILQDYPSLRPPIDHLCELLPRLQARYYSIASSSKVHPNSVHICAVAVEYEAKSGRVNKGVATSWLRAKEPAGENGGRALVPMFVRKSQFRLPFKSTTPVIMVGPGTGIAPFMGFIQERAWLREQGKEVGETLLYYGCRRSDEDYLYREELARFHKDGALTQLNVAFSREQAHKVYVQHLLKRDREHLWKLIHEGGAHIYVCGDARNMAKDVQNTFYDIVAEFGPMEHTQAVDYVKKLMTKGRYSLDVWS
# Results are given in words; binding and its absence hold for the method and conditions named. Binding calls can cover weak binding; strength is not graded here.
# Target: T1, WT P450 17A1 (human, UniProt P05093 1-508)
# T1 construct: cytochrome P450 17A1, human; approximate Mr 57 kDa; also called cytochrome P450 17A1; CYP17A1; source: E. coli JM109 (pCW vector), purified (Ni2+-NTA)
# T1 sequence (looked up): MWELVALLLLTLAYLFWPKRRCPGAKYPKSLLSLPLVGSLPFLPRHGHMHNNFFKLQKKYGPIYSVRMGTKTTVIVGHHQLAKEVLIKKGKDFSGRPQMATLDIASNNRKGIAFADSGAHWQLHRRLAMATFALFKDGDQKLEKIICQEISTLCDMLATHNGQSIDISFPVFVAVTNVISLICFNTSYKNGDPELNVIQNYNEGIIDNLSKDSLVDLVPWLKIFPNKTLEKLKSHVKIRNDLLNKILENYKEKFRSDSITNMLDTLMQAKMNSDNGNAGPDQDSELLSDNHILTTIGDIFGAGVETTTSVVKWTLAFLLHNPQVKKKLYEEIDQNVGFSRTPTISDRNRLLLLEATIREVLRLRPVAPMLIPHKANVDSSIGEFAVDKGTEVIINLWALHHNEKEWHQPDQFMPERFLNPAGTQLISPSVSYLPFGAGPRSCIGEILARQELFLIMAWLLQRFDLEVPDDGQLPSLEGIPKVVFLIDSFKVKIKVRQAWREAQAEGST
# Test: SEC; ternary equimolar (1:1:1) mixture of POR, P450 17A1 and b5 on Superose 12 10/300 GL, 50 mM potassium phosphate pH 7.4, […] NaCl; fractions analysed by SDS gel and densitometry; both purified
substance,measurement,value
NADPH–P450 reductase (from UniProt P00388) (enzyme),binding,binds
